Assay results: the supplement of paper PMC4862054
Small differences around the control level are noise.

Columns and labels:
Experiment in all cases: normalised response (% of control), CellTox Green; higher = less cell death (100 = DMSO, 0 = benzethonium chloride kill control)
Conditions in all cases: incubation time: 72 h
[1] = tested on: BT-474
Method: (§1)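 DSRT, 72 h incubation, CellTox Green / CellTiter-Glo readout. Signal is normalised to DMSO and benzethonium chloride controls. Value is the normalised response at the lowest tested concentration.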

[2] = tested on: BT-549
Method: as §1

[3] = tested on: CAL-120
Method: as §1

[4] = tested on: CAL-148
Method: as §1

[5] = tested on: CAL-51
Method: as §1

[6] = tested on: CAL-85-1
Method: as §1

[7] = tested on: DU-4475
Method: as §1

[8] = tested on: HCC1143
Method: as §1

[9] = tested on: HCC1599
Method: as §1

[10] = tested on: HCC1937
Method: as §1

[11] = tested on: HDQ-P1
Method: as §1

[12] = tested on: Hs578T
Method: as §1

[13] = tested on: MCF-10A
Method: as §1

[14] = tested on: MDA-MB-231
Method: as §1

[15] = tested on: MDA-MB-436
Method: as §1

[16] = tested on: MDA-MB-453
Method: as §1

[17] = tested on: MDA-MB-468
Method: as §1

[18] = tested on: MFM-223
Method: as §1

In the case of `CO[C@H]1C[C@@H]2CC[C@@H](C)[C@@](O)(O2)C(=O)C(=O)N2CCCC[C@H]2C(=O)O[C@H]([C@H](C)C[C@@H]2CC[C@@H](O)[C@H](OC)C2)CC(=O)[C@H](C)/C=C(\C)[C@@H](O)[C@@H](OC)C(=O)[C@H](C)C[C@H](C)/C=C/C=C/C=C/1C` [Sirolimus] (0.01 nM), the normalised response [1] was 100%, the normalised response [2] was 91.4% and the normalised response [3] was 98.3%. The normalised response [4] was 82%, the normalised response [5] was 103% and the normalised response [6] was 103%. The normalised response [7] was 106%, the normalised response [8] was 75.2% and the normalised response [9] was 107%. For the same compound, the normalised response [10] was 98.7%, the normalised response [11] was 100% and the normalised response [12] was 107%. For the same compound, the normalised response [13] was 106%, the normalised response [14] was 99.9% and the normalised response [15] was 86.5%. For the same compound, the normalised response [16] was 103%, the normalised response [17] was 101% and the normalised response [18] was 104%.

For `Oc1ncc(N(CCCl)CCCl)c(O)n1` [Uracil mustard] (1 nM), the normalised response [1] was 101%, the normalised response [2] was 90% and the normalised response [3] was 108%. It also gave a normalised response [4] of 78.6%, a normalised response [5] of 108% and a normalised response [6] of 97.7%. The normalised response [7] was 114%, the normalised response [8] was 63.9% and the normalised response [9] was 126%. The normalised response [10] was 61.4%, the normalised response [11] was 85% and the normalised response [12] was 118%. It also gave a normalised response [13] of 106%, a normalised response [14] of 117% and a normalised response [15] of 110%. For the same compound, the normalised response [16] was 96.3%, the normalised response [17] was 81.9% and the normalised response [18] was 105%.
